Results on 8 targets are retold here after the supplement of paper PMC12595434, “Development of retinoid nuclear receptor pathway antagonists through targeting aldehyde dehydrogenase 1A3” (iScience, 2025).

Amino acid sequences for entries named in this document (tags omitted). A change or cut given only in a name is not applied to a line headed by its entry.
UniProt Q9ULH7: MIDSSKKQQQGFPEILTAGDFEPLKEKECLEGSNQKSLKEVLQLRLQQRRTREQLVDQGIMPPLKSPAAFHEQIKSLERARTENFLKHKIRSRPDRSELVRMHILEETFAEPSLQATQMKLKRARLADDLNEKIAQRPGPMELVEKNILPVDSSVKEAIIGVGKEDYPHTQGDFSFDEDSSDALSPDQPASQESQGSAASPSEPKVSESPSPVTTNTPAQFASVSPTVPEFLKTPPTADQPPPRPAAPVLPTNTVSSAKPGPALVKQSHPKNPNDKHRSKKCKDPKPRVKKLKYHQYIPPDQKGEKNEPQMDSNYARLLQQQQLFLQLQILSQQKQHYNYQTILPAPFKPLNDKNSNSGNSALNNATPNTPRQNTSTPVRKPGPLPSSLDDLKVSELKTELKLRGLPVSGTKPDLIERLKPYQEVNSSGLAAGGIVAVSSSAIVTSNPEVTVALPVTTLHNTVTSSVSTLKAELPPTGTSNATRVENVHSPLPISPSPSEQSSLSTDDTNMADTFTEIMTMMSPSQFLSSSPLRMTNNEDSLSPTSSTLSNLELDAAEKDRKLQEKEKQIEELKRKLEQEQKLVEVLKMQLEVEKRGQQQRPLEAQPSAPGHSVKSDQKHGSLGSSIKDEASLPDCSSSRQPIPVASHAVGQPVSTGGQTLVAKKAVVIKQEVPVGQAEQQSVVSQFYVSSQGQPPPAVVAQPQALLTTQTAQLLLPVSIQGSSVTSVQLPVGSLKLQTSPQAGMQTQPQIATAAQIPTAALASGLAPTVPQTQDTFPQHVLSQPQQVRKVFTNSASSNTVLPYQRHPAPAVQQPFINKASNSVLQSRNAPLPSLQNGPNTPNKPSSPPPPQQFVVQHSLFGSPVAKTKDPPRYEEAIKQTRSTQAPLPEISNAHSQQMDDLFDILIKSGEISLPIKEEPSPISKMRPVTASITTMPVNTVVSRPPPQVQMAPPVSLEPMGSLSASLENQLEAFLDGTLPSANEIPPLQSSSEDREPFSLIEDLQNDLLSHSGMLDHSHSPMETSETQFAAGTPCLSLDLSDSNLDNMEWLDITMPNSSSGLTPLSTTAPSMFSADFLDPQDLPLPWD
UniProt Q9UHY8: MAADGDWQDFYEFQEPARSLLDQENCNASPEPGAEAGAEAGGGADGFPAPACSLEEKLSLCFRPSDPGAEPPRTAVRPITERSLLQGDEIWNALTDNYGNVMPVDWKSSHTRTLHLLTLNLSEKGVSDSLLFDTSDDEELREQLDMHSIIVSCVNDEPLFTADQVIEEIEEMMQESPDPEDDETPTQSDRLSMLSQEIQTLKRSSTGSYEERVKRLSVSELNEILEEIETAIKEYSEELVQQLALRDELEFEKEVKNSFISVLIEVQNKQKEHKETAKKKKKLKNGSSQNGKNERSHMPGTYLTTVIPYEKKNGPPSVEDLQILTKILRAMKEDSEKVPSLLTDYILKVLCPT
UniProt Q9UGU5: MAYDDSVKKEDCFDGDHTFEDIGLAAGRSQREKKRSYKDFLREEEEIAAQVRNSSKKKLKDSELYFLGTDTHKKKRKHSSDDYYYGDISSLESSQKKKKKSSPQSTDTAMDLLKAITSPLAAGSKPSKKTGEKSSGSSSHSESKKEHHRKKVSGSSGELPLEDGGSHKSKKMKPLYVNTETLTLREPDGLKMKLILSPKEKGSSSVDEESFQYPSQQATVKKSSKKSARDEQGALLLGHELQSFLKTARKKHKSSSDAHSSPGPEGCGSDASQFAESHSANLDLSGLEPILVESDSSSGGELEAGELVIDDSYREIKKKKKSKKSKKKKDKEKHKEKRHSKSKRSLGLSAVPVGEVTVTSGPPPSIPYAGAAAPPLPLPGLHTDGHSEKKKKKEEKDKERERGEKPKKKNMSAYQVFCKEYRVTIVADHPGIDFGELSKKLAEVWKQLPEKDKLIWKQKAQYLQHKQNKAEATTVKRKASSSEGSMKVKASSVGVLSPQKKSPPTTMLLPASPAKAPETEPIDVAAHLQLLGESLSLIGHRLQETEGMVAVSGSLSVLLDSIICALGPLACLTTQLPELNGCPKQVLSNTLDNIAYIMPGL
UniProt Q9UQ80: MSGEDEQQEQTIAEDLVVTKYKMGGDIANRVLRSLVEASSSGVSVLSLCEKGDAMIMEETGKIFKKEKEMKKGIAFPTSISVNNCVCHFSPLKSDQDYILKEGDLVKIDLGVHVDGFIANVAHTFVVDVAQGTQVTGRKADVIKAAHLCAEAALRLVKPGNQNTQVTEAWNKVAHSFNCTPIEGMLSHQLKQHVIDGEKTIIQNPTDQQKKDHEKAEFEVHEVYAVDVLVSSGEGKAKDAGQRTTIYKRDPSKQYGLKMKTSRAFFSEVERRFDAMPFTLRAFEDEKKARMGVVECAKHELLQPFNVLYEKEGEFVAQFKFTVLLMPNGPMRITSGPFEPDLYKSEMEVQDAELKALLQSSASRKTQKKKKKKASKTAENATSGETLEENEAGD
UniProt Q9UMZ2: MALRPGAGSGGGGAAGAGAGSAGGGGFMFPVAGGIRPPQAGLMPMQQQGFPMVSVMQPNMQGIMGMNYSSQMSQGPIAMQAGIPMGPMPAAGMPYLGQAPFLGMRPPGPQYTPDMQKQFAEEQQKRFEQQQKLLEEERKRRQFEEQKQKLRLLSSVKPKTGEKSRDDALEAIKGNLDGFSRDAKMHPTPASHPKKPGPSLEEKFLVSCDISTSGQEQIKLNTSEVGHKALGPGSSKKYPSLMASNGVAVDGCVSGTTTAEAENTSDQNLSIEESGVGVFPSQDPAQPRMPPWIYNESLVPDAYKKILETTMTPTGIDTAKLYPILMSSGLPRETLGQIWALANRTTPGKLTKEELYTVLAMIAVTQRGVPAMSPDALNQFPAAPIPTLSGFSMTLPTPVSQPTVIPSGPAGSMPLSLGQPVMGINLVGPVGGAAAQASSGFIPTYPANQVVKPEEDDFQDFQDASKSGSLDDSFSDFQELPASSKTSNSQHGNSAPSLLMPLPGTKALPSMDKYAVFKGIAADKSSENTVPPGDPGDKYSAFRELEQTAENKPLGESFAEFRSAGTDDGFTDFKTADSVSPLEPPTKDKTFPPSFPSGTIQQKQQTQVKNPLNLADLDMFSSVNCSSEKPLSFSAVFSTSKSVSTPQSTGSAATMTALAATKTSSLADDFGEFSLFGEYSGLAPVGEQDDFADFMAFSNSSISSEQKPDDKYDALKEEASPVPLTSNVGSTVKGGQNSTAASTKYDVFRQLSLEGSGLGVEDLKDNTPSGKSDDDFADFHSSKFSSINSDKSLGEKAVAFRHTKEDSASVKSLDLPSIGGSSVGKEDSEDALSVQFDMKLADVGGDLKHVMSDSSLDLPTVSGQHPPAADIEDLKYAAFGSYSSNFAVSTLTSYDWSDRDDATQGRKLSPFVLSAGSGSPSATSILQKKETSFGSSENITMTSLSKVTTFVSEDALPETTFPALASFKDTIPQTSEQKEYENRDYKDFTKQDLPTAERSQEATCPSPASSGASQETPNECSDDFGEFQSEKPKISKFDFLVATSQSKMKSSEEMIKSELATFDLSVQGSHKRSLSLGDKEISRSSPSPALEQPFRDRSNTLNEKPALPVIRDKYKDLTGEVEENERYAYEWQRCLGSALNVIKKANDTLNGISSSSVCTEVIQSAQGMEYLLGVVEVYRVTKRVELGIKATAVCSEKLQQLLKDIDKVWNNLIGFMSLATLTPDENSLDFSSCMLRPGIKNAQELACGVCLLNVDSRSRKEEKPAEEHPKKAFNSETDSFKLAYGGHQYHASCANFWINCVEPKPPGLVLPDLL
UniProt Q9UN81: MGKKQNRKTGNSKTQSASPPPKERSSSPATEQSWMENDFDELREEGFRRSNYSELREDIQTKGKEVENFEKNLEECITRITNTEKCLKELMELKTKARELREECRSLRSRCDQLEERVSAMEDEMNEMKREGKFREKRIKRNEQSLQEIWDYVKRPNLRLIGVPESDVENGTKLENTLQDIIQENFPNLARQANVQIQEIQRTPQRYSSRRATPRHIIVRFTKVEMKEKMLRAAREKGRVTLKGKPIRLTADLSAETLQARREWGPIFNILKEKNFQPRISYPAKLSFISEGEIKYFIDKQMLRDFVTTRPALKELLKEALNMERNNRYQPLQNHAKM
UniProt Q9ULH1: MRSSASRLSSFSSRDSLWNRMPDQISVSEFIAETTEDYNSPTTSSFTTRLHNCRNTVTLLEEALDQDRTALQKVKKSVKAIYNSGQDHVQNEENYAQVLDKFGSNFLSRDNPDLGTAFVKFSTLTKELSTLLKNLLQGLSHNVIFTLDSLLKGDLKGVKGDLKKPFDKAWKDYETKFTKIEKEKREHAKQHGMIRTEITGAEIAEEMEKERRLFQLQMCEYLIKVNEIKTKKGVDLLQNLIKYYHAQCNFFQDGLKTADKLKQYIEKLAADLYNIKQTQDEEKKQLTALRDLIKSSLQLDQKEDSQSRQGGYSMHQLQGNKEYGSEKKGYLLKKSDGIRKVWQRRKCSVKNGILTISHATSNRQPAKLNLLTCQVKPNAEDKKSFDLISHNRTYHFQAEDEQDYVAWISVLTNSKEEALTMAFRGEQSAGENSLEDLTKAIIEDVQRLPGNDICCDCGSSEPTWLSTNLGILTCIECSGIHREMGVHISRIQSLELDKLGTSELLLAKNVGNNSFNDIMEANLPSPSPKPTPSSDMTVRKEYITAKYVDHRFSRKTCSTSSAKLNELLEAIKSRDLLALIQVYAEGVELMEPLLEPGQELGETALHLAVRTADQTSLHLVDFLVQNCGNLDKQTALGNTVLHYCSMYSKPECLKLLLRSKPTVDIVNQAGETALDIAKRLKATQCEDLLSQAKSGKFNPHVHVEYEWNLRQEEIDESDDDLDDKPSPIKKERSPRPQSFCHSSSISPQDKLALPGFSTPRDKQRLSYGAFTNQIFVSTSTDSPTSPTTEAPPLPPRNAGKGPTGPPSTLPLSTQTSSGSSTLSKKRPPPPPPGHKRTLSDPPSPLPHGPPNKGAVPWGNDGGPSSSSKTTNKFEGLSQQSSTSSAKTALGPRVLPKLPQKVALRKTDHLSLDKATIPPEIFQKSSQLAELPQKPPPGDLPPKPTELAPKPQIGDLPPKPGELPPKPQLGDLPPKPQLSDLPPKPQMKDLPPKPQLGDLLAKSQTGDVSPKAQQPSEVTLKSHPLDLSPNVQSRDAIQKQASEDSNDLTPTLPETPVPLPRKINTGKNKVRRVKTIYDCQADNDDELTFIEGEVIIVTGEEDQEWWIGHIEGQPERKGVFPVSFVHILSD
UniProt Q9UKX7: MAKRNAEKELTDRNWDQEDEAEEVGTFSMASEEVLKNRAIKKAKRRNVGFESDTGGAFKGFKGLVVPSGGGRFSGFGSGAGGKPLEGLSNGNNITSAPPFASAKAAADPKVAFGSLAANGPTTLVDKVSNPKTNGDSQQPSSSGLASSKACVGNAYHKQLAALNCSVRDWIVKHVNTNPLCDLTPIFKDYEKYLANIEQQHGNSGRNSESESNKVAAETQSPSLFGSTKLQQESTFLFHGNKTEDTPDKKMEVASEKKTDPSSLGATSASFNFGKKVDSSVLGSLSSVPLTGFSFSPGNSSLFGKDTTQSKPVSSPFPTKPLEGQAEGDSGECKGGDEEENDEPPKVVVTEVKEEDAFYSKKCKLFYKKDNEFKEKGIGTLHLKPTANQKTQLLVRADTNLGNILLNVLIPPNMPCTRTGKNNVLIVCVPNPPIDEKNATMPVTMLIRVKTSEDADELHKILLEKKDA

Some of the results follow. Single values of this set are uncertain.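 Tm was set to 64 °C where no melting was found, and many curves are irregular.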

Compound in this assay: CCc1cnccc1C(=O)Nc1cc2c(cc1F)NC(=O)CC2
The assay is described as follows: melting temperature shift (DMSO Tm minus MBE1-treated Tm) in cellular thermal proteome profiling; higher = less thermal stabilization by MBE1 (negative = stabilized by MBE1). To be noted: A375.

Take MKL2 (UniProt Q9ULH7): the melting temperature shift (MBE1 concentration: 100 nM) is -0.0733 °C and the melting temperature shift (MBE1 concentration: 1 uM) was -0.48 °C.

As to UniProt Q9UHY8, the melting temperature shift (MBE1 concentration: 100 nM) was -0.113 °C and the melting temperature shift (MBE1 concentration: 1 uM) was -0.395 °C.

As to UniProt Q9UGU5, the melting temperature shift is, setting by setting: (MBE1 concentration: 100 nM) -0.525 °C; (MBE1 concentration: 1 uM) -0.321 °C.

For PA2G4 (UniProt Q9UQ80), the melting temperature shift is, setting by setting: (MBE1 concentration: 100 nM) -0.241 °C; (MBE1 concentration: 1 uM) 0.0604 °C.

Regarding SYNRG (UniProt Q9UMZ2), the melting temperature shift (MBE1 concentration: 100 nM) turned out to be 0.0611 °C and the melting temperature shift (MBE1 concentration: 1 uM) came out at 0.434 °C.

On to UniProt Q9UN81, for which the melting temperature shift was -0.389 °C (MBE1 concentration: 100 nM) and 0.458 °C (MBE1 concentration: 1 uM).

On to ASAP1 (UniProt Q9ULH1), for which the melting temperature shift runs as follows: (MBE1 concentration: 100 nM) 0.824 °C; (MBE1 concentration: 1 uM) 0.556 °C.

In the case of NUP50 (UniProt Q9UKX7), the melting temperature shift runs as follows: (MBE1 concentration: 100 nM) -0.818 °C; (MBE1 concentration: 1 uM) -0.359 °C.
